The assay has as its target BirA*-FLAG-HDLBP (human) (UniProt Q00341). Briefly: proximity labelling; BioID in stable HEK293 cells expressing BirA*-FLAG-HDLBP; with or without 1 µg/ml doxycycline for 24 h, 250 µM biotin for 3.5 h; RIPA lysis, benzonase, streptavidin sepharose, LC-MS/MS; enrichment LFQ(Dox) vs. LFQ(noDox).

The chains behind the UniProt entries cited, without tags or fusion partners.
UniProt Q00341: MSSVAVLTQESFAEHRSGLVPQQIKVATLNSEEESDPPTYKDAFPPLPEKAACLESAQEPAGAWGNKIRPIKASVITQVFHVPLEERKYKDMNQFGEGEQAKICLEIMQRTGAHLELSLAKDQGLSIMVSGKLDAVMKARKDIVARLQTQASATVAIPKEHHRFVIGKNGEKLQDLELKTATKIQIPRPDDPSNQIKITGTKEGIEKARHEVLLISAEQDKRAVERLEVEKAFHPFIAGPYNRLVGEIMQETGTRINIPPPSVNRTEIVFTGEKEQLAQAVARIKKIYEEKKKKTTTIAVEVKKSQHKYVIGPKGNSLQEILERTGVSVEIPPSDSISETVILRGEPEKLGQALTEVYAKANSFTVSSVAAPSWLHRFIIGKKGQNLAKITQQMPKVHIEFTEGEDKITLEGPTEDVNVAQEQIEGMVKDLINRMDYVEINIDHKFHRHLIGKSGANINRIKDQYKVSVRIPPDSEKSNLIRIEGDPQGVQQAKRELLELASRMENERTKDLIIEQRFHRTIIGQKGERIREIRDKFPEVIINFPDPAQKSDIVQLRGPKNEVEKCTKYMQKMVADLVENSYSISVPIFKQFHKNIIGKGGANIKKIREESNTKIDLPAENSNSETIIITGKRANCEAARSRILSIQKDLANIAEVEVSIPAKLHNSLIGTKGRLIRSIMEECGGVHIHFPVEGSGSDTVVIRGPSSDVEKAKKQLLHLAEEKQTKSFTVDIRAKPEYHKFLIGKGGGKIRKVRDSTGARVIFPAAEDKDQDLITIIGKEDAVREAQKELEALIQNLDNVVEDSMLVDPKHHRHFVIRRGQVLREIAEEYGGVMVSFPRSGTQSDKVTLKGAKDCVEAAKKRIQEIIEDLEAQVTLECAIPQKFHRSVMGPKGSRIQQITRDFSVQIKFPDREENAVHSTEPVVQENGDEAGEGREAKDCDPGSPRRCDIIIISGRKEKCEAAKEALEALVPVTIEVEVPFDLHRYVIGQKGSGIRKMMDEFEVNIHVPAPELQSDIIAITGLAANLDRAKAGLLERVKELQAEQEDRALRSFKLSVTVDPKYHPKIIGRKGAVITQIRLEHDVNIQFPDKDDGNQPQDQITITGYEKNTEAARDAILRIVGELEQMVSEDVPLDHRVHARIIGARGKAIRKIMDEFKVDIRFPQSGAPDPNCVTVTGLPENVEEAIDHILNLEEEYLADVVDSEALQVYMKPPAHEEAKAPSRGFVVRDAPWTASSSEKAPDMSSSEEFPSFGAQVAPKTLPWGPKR
UniProt P50990: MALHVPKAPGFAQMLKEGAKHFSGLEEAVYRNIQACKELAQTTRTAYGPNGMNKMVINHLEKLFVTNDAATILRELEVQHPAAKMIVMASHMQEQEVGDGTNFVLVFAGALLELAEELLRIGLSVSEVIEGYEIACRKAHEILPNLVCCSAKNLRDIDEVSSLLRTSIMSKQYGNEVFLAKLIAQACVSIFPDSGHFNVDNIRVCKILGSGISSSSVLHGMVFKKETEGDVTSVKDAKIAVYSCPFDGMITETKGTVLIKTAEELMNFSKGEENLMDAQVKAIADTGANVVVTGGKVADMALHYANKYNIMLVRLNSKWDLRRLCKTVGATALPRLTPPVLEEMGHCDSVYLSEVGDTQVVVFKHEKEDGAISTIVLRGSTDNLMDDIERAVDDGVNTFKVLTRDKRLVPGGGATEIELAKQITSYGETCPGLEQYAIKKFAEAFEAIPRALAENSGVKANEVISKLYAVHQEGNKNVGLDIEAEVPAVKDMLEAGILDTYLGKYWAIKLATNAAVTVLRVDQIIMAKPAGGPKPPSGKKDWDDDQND
UniProt O60573: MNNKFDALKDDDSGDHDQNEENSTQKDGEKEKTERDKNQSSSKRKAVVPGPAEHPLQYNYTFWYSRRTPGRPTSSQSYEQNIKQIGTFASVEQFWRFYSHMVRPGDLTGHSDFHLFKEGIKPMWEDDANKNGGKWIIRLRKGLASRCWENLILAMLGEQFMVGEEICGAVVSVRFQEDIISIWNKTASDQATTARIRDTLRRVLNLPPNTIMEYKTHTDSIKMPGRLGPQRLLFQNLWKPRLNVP
UniProt Q04637: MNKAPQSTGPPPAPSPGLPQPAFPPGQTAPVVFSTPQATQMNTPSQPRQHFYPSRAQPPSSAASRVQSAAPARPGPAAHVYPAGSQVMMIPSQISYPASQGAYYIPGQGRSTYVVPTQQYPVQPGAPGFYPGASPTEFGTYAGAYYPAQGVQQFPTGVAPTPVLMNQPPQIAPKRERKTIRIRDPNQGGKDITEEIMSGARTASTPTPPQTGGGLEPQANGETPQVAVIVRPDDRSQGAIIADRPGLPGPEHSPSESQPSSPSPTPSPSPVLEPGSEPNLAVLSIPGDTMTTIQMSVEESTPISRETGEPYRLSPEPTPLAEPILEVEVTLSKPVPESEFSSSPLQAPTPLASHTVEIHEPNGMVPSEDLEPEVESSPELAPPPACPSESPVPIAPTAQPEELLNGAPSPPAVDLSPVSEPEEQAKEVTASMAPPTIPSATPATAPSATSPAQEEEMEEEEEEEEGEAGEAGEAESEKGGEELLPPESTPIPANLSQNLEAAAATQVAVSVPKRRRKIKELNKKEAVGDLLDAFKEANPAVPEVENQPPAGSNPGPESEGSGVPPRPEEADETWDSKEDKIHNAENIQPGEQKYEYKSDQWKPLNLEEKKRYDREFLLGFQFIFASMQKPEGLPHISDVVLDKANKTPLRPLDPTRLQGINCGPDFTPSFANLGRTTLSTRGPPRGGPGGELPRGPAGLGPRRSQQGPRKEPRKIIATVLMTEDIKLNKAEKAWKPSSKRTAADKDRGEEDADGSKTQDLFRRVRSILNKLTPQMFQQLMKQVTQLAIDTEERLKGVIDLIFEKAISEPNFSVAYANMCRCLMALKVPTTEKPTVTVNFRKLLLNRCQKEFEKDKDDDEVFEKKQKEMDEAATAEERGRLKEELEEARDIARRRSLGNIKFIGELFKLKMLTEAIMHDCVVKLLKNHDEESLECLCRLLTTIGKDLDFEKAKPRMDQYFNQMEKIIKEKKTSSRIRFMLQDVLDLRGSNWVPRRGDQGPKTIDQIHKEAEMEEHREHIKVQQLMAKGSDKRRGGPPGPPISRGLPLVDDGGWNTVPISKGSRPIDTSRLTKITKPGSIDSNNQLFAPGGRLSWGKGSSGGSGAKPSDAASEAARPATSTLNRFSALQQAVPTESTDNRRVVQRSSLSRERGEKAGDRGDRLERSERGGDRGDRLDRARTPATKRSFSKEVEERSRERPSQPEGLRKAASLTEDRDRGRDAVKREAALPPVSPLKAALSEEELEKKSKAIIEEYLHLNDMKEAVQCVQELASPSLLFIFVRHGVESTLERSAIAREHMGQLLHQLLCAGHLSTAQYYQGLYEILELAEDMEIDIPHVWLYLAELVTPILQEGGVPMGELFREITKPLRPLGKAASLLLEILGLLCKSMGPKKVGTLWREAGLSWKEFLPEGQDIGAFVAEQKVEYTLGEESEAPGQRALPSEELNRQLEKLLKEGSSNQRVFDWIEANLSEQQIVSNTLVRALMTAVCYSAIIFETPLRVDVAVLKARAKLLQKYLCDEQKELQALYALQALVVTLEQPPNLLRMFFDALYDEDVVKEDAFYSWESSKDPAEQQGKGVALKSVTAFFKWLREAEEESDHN
UniProt P55010: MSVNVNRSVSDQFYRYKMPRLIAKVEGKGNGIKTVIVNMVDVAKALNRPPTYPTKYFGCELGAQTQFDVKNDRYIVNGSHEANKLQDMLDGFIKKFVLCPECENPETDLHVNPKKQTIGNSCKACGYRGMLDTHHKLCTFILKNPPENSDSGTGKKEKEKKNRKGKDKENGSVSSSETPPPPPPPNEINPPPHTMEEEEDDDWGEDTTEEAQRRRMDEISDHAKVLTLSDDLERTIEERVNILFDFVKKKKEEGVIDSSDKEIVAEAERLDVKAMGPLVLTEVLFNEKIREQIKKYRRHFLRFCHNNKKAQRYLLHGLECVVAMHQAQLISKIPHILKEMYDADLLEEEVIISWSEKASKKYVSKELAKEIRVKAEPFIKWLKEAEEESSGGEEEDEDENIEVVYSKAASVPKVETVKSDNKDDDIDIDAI
UniProt P0DMV8: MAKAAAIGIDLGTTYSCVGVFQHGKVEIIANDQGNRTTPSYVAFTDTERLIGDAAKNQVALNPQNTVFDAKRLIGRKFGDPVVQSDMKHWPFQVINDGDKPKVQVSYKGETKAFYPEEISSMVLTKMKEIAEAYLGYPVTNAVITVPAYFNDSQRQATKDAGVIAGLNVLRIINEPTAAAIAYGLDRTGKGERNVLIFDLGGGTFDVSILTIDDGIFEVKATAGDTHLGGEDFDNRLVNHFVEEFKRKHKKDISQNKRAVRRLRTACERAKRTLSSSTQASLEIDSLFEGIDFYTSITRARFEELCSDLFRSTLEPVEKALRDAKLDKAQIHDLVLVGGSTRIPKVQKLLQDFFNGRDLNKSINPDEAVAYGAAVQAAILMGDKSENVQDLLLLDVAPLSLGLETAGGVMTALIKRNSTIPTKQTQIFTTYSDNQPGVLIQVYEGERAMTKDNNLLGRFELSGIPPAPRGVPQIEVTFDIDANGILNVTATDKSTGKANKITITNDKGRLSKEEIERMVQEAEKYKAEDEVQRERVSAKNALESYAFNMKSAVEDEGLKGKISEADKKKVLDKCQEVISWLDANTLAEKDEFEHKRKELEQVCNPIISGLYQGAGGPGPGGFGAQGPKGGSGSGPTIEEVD
UniProt P11142: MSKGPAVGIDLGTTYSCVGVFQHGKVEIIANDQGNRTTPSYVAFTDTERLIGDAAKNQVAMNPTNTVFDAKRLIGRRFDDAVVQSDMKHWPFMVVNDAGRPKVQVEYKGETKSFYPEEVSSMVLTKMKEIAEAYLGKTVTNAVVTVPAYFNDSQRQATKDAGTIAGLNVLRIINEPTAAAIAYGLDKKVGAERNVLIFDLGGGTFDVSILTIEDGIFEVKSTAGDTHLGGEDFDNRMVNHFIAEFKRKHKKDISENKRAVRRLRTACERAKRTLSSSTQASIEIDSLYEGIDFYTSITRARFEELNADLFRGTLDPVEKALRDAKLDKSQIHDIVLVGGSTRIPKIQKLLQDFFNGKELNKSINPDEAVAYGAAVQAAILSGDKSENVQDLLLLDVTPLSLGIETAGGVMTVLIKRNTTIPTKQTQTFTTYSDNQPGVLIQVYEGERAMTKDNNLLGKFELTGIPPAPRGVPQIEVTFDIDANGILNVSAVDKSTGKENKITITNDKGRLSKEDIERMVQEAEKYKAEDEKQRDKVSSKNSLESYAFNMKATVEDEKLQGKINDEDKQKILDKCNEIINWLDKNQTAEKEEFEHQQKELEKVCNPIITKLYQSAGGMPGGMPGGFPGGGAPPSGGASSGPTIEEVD

These are yes or no findings as the source states them, for the method shown. In cells and extracts the contact can be indirect. Here binding means that the protein was enriched with, or labelled near, the bait; the list need not be complete.

CCT8 (from UniProt P50990 1-548): the binding entry is given as “binds”.

Turning to EIF4E2 (from UniProt O60573 1-245), the binding result is recorded as “binds”. To EIF4G1 (from UniProt Q04637 1-1599) belongs “binds”. For EIF5 (from UniProt P55010 1-431), the binding entry is recorded as “binds”. Take HSPA1A (from UniProt P0DMV8 1-641): the binding result was “binds”.

Regarding HSPA8 (from UniProt P11142 1-646), the binding entry is “binds”.

B1: SRP68 (protein, UniProt Q9UHB9 1-627)
chain: MAAEKQVPGGGGGGGSGGGGGSGGGGSGGGRGAGGEENKENERPSAGSKANKEFGDSLSLEILQIIKESQQQHGLRHGDFQRYRGYCSRRQRRLRKTLNFKMGNRHKFTGKKVTEELLTDNRYLLLVLMDAERAWSYAMQLKQEANTEPRKRFHLLSRLRKAVKHAEELERLCESNRVDAKTKLEAQAYTAYLSGMLRFEHQEWKAAIEAFNKCKTIYEKLASAFTEEQAVLYNQRVEEISPNIRYCAYNIGDQSAINELMQMRLRSGGTEGLLAEKLEALITQTRAKQAATMSEVEWRGRTVPVKIDKVRIFLLGLADNEAAIVQAESEETKERLFESMLSECRDAIQVVREELKPDQKQRDYILEGEPGKVSNLQYLHSYLTYIKLSTAIKRNENMAKGLQRALLQQQPEDDSKRSPRPQDLIRLYDIILQNLVELLQLPGLEEDKAFQKEIGLKTLVFKAYRCFFIAQSYVLVKKWSEALVLYDRVLKYANEVNSDAGAFKNSLKDLPDVQELITQVRSEKCSLQAAAILDANDAHQTETSSSQVKDNKPLVERFETFCLDPSLVTKQANLVHFPPGFQPIPCKPLFFDLALNHVAFPPLEDKLEQKTKSGLTGYIKGIFGFRS
On to B1, for which the binding result is given as “binds”.

For the origin of these results see PMC9117268, “HDLBP binds ER-targeted mRNAs by multivalent interactions to promote protein synthesis of transmembrane and secreted proteins”.
